Results deposited as PubChem BioAssay AID1508588 (Peter MacCallum Cancer Centre, 2020)

- Screen: 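Which gene losses make BRAF-mutant melanoma cells more responsive to vemurafenib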 (primary screen)
- Cell system: human WM266.4 melanoma cells (BRAF V600 mutant)
- Knock-down reagent: siRNA pool against human genes, 40 nM
- Duration: 96 h from transfection to read-out
- Challenge: vemurafenib 300 nM (about IC25), added 48 h after transfection, for 48 h; comparison arm got DMSO vehicle only
- Read-out: 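Cell gain (DAPI nuclei at end minus before drug, mean of two replicates) and medium lactate by absorbance per cell, both as ratio to non-targeting siRNA, also grouped into fold-change classes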
- Scale: cell gain with vemurafenib: higher = more cell gain than with non-targeting siRNA; lactate per cell with vemurafenib: higher = more lactate made per cell
- Rule for the call: 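a knock-down counts as enhancing when its fold-change classes with vehicle and with vemurafenib, taken together, show a stronger drug effect on cell gain or lactate per cell; exact class pairs not stated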
- Meaning of the calls: active = enhances vemurafenib effect; inactive = no enhancement seen
The deposit covers about 18,000 reagents; below is an unselected part. Over the whole deposit, 790 (4.4%) were called active. 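Calls rest on a combination of fold-change classes in drug and vehicle arms, not all shown here.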 No sequences are given here.

| gene symbol | cell gain with vemurafenib | lactate per cell with vemurafenib | outcome |
| --- | --- | --- | --- |
| KDM5B | 0.99 | 0.92 | inactive |
| TOM1L1 | 1.08 | 0.68 | inactive |
| NAPSA | 0.67 | 1.03 | inactive |
| FABP7 | 0.57 | 0.34 | active |
| CST11 | 0.91 | 0.82 | inactive |
| GOLPH3 | 0.38 | 0.66 | inactive |
| INO80B | 0.45 | 0.75 | inactive |
| DISP2 | 0.32 | 2.45 | inactive |
| TAF4 | 0.2 | 1.73 | inactive |
| ZDHHC6 | 0.35 | 1.24 | inactive |
| ADAMTS1 | -0.14 | 3.38 | inactive |
| CALM1 | 0.09 | 1.63 | inactive |
| CIPC | 0.43 | 0.88 | inactive |
| EVPL | 0.62 | 0.28 | inactive |
| OLFM3 | 0.39 | 0.86 | inactive |
| IL3 | 0.07 | 3.08 | inactive |
| SPTSSB | 0.63 | 1.29 | inactive |
| RASSF4 | 0.04 | 1.75 | inactive |
| BAGE2 | 0.06 | 0.68 | active |
| SCRN3 | 0.93 | 0.62 | inactive |
| BPIFB3 | 0.85 | 0.51 | inactive |
| UCN2 | 0.35 | 2.2 | inactive |
| ART4 | 1.14 | 0.45 | inactive |
| NLRP12 | 0.91 | 1.05 | inactive |
| CHODL | 0.6 | 0.52 | inactive |
| ZNF182 | 1.13 | 0.68 | inactive |
| ZNF354B | 0.72 | 1.17 | inactive |
| RNF144B | 0.68 | 1.01 | inactive |
| MXRA7 | 0.27 | 1.5 | inactive |
| NUP85 | 0.81 | 0.94 | inactive |
| RETREG2 | 0.34 | 0.74 | inactive |
| PLA2G6 | 0.28 | 1.1 | inactive |
| GPKOW | 0.72 | 0.73 | inactive |
| AIFM1 | 0.43 | 1.01 | inactive |
